Measured values from PubChem BioAssay.
Inconclusive means that the source gave no clear call. Such entries were picked first, then a sample of the others. For part of these data: Potencies of inconclusive entries are doubtful fits and often do not repeat. Active and inactive are the calls of the source. Unless noted, no cut-off is given here; in the data, nearly all actives have AC50 up to about 26 µM.

Protein sequences, listed by entry. Tags and fused reporters are not part of them.
UniProt P08183, whole entry, looked up: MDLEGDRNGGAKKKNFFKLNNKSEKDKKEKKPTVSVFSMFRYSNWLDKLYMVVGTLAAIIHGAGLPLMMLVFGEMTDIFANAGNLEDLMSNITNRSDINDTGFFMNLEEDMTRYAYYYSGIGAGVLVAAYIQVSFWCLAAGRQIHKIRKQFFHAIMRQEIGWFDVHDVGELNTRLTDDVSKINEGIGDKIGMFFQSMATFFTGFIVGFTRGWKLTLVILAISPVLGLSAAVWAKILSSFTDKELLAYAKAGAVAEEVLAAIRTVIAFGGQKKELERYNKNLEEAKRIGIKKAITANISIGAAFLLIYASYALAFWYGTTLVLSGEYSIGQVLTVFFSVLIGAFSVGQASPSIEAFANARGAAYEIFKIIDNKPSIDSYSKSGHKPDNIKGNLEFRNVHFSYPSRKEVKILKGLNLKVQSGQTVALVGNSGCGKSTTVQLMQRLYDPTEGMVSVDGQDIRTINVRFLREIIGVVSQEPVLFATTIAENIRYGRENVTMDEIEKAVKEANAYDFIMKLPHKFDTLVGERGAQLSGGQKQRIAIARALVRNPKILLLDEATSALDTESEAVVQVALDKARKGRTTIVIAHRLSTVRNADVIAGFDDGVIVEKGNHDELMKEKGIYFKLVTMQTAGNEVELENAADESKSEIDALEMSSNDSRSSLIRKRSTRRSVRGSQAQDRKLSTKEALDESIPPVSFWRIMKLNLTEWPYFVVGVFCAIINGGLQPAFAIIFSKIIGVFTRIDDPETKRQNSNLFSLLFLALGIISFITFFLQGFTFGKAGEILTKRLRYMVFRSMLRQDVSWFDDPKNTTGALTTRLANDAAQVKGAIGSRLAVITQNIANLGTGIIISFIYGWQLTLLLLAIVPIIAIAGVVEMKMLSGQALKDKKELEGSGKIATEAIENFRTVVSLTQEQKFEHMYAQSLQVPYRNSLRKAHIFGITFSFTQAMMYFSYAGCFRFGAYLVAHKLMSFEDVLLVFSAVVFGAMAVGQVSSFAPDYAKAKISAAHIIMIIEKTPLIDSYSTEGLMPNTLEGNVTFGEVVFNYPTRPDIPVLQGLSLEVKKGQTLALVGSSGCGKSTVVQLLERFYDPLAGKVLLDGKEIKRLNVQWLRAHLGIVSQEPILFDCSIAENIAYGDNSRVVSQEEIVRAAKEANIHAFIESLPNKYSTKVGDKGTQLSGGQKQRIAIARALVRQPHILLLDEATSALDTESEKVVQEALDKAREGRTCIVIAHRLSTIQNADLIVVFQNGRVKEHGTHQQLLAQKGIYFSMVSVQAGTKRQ

Columns and labels:
[1] = growth inhibition of DIPG glioma cells, dose response, cell-based, SU-DIPG-XVII, MIPE5.0, CellTiter-Glo, qHTS (AID 1347060); conditions: SU-DIPG-XVII viability, CellTiter-Glo ATP luminescence;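 for AC50: cells exposed to compound for 48 hours before viability readout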
[2] = growth inhibition of DIPG glioma cells, dose response, cell-based, JHH-DIPG-1, MIPE4.0, CellTiter-Glo, qHTS (AID 1347062; cut-off not given, nearly all actives have AC50 up to about 27 µM;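 for AC50: cells exposed to compound for two days before readout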); conditions: JHH-DIPG-1 viability, CellTiter-Glo ATP luminescence
[3] = growth inhibition of DIPG glioma cells, dose response, cell-based, SU-DIPG-XIII, MIPE5.0, CellTiter-Glo, qHTS (AID 1347064; cut-off not given, nearly all actives have AC50 up to about 23 µM;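 for AC50: cells exposed to compound for 48 hours before the viability read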); conditions: SU-DIPG-XIII viability, CellTiter-Glo ATP luminescence
[4] = viability loss in pontine glioma line – cell-based, SU-DIPG-XXV, MIPE5.0, CellTiter-Glo, qHTS, dose response (AID 1347065); conditions: CellTiter-Glo ATP luminescence;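 note: cells exposed to compound for 48 hours before ATP readout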
[5] = SU-DIPG-VI glioma cell viability, MIPE4.0 library, CellTiter-Glo luminescence, qHTS (AID 1347066; cut-off not given, nearly all actives have AC50 up to about 30 µM;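 note: cells exposed to compound for 48 hours before readout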); conditions: CellTiter-Glo ATP luminescence
[6] = JHH-DIPG-1 glioma cell viability, MIPE5.0 library, CellTiter-Glo luminescence, qHTS (AID 1347067); conditions: JHH-DIPG-1 glioma viability, CellTiter-Glo ATP luminescence;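 note: cells exposed to compound for 48 hours before readout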
[7] = growth inhibition of DIPG glioma cells, dose response, cell-based, SU-DIPG-IV, MIPE4.0, CellTiter-Glo, qHTS (AID 1347063; cut-off not given, nearly all actives have AC50 up to about 30 µM;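 note: compound exposure lasted 48 hours before the viability readout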); conditions: SU-DIPG-IV viability, CellTiter-Glo ATP luminescence
[8] = SU-DIPG-XXV glioma cell viability, MIPE5.0 library, qHTS (AID 1347068; cut-off not given, nearly all actives have IC50 up to about 30 µM;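 for IC50: cells exposed to compound for 48 hours before viability readout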)
[9] = inhibitors of polyQ aggregate elongation, biochemical, solid-phase synthetic aggregates, QA3 (AID 1585; call rule not given here); conditions: biotin-polyQ incorporation, at 100 µM, stronger effect = higher value
[10] = polyglutamine aggregation reduction, turbidity readout, qthio, single concentration 25 µM screen (AID 1588; call rule not given here); conditions: at 25 µM, stronger effect = lower value
[11] = protection of motor neurons from glutamate death, cell-based, TUNEL DNA degradation staining, MNGlu (AID 1594; call rule not given here); conditions: glutamate-induced death, at 1 µM, stronger effect = higher value
[12] = enhancers of SMN2 over SMN1 splicing, cell-based, SMN2/SMN1 luciferase reporters (AID 1598; call rule not given here); conditions: SMN2 vs SMN1 luciferase splicing reporter cells; at 10 µM; stronger effect = higher value
[13] = target: ATP-dependent translocase ABCB1 (Homo sapiens) (UniProt P08183); test: MDR1 (ABCB1) efflux transporter inhibition, cell-based (AID 377; in the data active = fluorescence slope change above about 50%; inconclusive = mostly about 31% to 49%); conditions: MDR1-expressing cells, fluorescent substrate accumulation slope; stronger effect = higher value; concentration not given here

CC[C@H](C)C(=O)O[C@H]1C[C@H](O)C=C2C=C[C@H](C)[C@H](CC[C@@H](O)C[C@@H](O)CC(=O)O)[C@H]21
inactive: outcome [3] | outcome [6]
inconclusive: AC50 [2] 14.8 µM [cytotoxic] | AC50 [4] 0.00105 µM [cytotoxic] | AC50 [5] 0.526 µM [cytotoxic]
active: AC50 [1] 23.5 µM

CC1(C)[C@@H](O)CC[C@]2(C)[C@H]3C(=O)C=C4[C@@H]5C[C@@](C)(C(=O)O)CC[C@]5(C)CC[C@@]4(C)[C@]3(C)CC[C@@H]12
inactive: outcome [1] | outcome [7]
inconclusive: AC50 [3] 0.00263 µM | AC50 [4] 13.2 µM [cytotoxic]

CN(C)CCOc1ccc(/C(=C(/CCCl)c2ccccc2)c2ccccc2)cc1
inconclusive: AC50 [1] 20.9 µM [cytotoxic] | AC50 [7] 0.0332 µM [cytotoxic] | AC50 [3] 37.2 µM [cytotoxic] | AC50 [6] 37.2 µM [cytotoxic] | IC50 [8] 29.5 µM [cytotoxic]
inactive: outcome [2]

O=C(O)CCn1c2c(c3ccccc31)C[C@H](NS(=O)(=O)c1ccc(F)cc1)CC2
inconclusive: AC50 [7] 13.2 µM [cytotoxic] | AC50 [3] 1.86 µM
inactive: outcome [1] | outcome [4]

Oc1cc(O)cc(/C=C/c2ccc(O)c(O)c2)c1
inconclusive: AC50 [1] 20.9 µM [cytotoxic] | AC50 [2] 23.5 µM [cytotoxic] | AC50 [7] 16.6 µM [cytotoxic] | outcome [4] | AC50 [5] 18.7 µM [cytotoxic]
active: AC50 [6] 16.6 µM
inactive: outcome [8]

c1ccc2[nH]c(-c3cscn3)nc2c1
inconclusive: inhibition [9] 4.45% | aggregation (% of control) [10] 107% | protection [11] 2% | SMN2/SMN1 luciferase ratio [12] 0.86 | AC50 [1] 16.6 µM [cytotoxic] | AC50 [3] 11.8 µM [cytotoxic]
inactive: outcome [2] | outcome [4] | outcome [5] | outcome [6] | outcome [8]

Three structures already listed, sorted by length of the SMILES, ascending.
c1ccc2[nH]c(-c3cscn3)nc2c1
inconclusive: inhibition [9] 4.45% | aggregation (% of control) [10] 107% | protection [11] 2% | SMN2/SMN1 luciferase ratio [12] 0.86 | AC50 [1] 16.6 µM [cytotoxic] | AC50 [3] 11.8 µM [cytotoxic]
inactive: outcome [2] | outcome [4] | outcome [5] | outcome [6] | outcome [8]

Oc1cc(O)cc(/C=C/c2ccc(O)c(O)c2)c1
inconclusive: AC50 [1] 20.9 µM [cytotoxic] | AC50 [2] 23.5 µM [cytotoxic] | AC50 [7] 16.6 µM [cytotoxic] | outcome [4] | AC50 [5] 18.7 µM [cytotoxic]
active: AC50 [6] 16.6 µM
inactive: outcome [8]

O=C(O)CCn1c2c(c3ccccc31)C[C@H](NS(=O)(=O)c1ccc(F)cc1)CC2
inconclusive: AC50 [7] 13.2 µM [cytotoxic] | AC50 [3] 1.86 µM
inactive: outcome [1] | outcome [4]

Next part.

Cc1nc2c([nH]1)CCN(C(=O)c1ccc(NC(=O)c3ccccc3-c3ccccc3)cc1)c1ccccc1-2
inactive: outcome [7] | outcome [3]
inconclusive: AC50 [1] 0.00118 µM | AC50 [4] 29.5 µM [cytotoxic]

CC[C@H](C)C(=O)O[C@H]1C[C@@H](C)C=C2C=C[C@H](C)[C@H](CC[C@@H]3C[C@@H](O)CC(=O)O3)[C@H]21
inconclusive: inhibition [9] 11.9% | aggregation (% of control) [10] 112% | SMN2/SMN1 luciferase ratio [12] 0.98 | AC50 [1] 16.6 µM [cytotoxic] | AC50 [2] 14.8 µM [cytotoxic] | AC50 [7] 2.35 µM [cytotoxic] | AC50 [3] 11.8 µM [cytotoxic] | AC50 [6] 2.35 µM [cytotoxic]

COc1ccc(Cc2ccc(NC(N)=O)cc2)cc1-c1cccc(Cl)c1
inactive: outcome [2] | outcome [5] | outcome [6]
inconclusive: AC50 [1] 37.2 µM [cytotoxic] | IC50 [8] 23.5 µM [cytotoxic]

O=c1cc(-c2ccc(O)c(O)c2)oc2cc(O)cc(O)c12
inconclusive: fluorescence slope change [13] 46.3% | AC50 [1] 13.2 µM [cytotoxic] | AC50 [2] 20.9 µM [cytotoxic] | AC50 [3] 18.6 µM [cytotoxic] | AC50 [4] 14.8 µM [cytotoxic] | AC50 [6] 37.2 µM [cytotoxic] | IC50 [8] 23.5 µM [cytotoxic]
inactive: outcome [5]

Cc1cc2c(cc1C1(c3ccc(C(=O)O)cn3)CC1)C(C)(C)CCC2(C)C
inconclusive: AC50 [4] 29.5 µM [cytotoxic] | AC50 [5] 0.00263 µM [cytotoxic] | AC50 [6] 37.2 µM [cytotoxic]
inactive: outcome [1] | outcome [7] | outcome [3]

CC(C)OC(=O)C(C(=O)OC(C)C)=C1SC=CS1
inconclusive: AC50 [3] 0.295 µM [cytotoxic] | AC50 [4] 16.6 µM [cytotoxic] | AC50 [5] 20.9 µM [cytotoxic] | AC50 [6] 18.6 µM [cytotoxic]
inactive: outcome [1] | outcome [7]

CC(=O)OC1C(C)OC(Oc2c(-c3ccc(O)cc3)oc3cc(O)cc(O)c3c2=O)C(O)C1OC(C)=O (configuration not stated)
inactive: outcome [1]
inconclusive: AC50 [2] 23.5 µM [cytotoxic] | AC50 [3] 37.2 µM [cytotoxic] | AC50 [4] 14.8 µM [cytotoxic] | AC50 [5] 18.7 µM [cytotoxic] | AC50 [6] 23.5 µM [cytotoxic] | IC50 [8] 0.00148 µM [cytotoxic]

CCOc1cc2ncc(C#N)c(Nc3ccc(F)c(Cl)c3)c2cc1NC(=O)/C=C/CN(C)C
inconclusive: AC50 [1] 6.61 µM [cytotoxic] | AC50 [5] 18.7 µM [cytotoxic] | IC50 [8] 10.5 µM [cytotoxic]
active: AC50 [2] 7.43 µM | AC50 [3] 5.9 µM
